Patent US10921311B2, “Fusions and method for detecting same” (JAPANESE FOUNDATION FOR CANCER RESEARCH, priority 2016, dated 2021)
At least one compound was matched to its structure with a doubt left.

Sequences of proteins named here, by UniProt entry; tags and fusion partners are left off. A line that says so, or that is headed by a name, gives the form on record, which may keep a tag or linker.
UniProt P15056, with tags, fused parts or gaps: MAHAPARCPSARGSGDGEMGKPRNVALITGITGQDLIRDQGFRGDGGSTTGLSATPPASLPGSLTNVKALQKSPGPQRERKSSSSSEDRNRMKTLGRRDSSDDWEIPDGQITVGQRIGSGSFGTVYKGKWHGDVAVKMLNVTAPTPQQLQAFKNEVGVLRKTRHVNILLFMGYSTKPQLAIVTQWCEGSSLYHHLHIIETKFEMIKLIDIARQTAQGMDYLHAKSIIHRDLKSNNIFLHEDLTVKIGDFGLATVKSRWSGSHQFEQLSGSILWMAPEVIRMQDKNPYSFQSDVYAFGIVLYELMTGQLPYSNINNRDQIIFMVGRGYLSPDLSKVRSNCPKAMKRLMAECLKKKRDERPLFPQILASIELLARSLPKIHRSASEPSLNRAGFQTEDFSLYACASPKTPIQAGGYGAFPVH

Legend:
parent line Ba/F3 cells = assay: Sensitivity of parent line Ba/F3 cells to BRAF inhibitor (cell count after 72 h culture); assay type: cell-based, mouse; conditions: IL-3 concentration=0.5 ng/mL, unless concentration exceeded an excessive level that exerted cytotoxicity
[1] = test system: Ba/F3 cells transfected with pLenti6-PXN-BRAF; assay: Sensitivity of PXN-BRAF fusion polypeptide-expressing Ba/F3 cells to BRAF inhibitor (cell count after 72 h culture); assay type: cell-based, mouse; conditions: without the addition of IL-3, 72 hours, concentration-dependent
[2] = test system: Ba/F3 cells transfected with pLenti6-GMDS-BRAF; assay: Sensitivity of GMDS-BRAF fusion polypeptide-expressing Ba/F3 cells to BRAF inhibitor (cell count after 72 h culture); assay type: cell-based, mouse; conditions: without the addition of IL-3, 72 hours, concentration-dependent
[3] = biological target: T1, GMDS-BRAF fusion polypeptide (Homo sapiens, UniProt P15056); assay: Western blotting of MEK phosphorylation in GMDS-BRAF fusion polypeptide-expressing cells treated with BRAF inhibitor; assay type: cell-based; conditions: GMDS-BRAF-expressing Ba/F3 cell extract
T1 construct: expressed in transfected cells; host or cells: Ba/F3 (mouse lymphoid cell line)

CC(=O)Nc1cccc(-n2c(=O)n(C3CC3)c(=O)c3c(Nc4ccc(I)cc4F)n(C)c(=O)c(C)c32)c1 [BRAF inhibitor, trametinib]
influence on the ability to grow (parent line Ba/F3 cells): no influence | cell growth [1]: significantly inhibited | cell growth [2]: significantly inhibited | polypeptide level of MEK ([3]; anti-MEK antibody, presence vs absence of treatment and among treatment concentrations): rarely differed | MEK phosphorylation (pMEK) ([3]; anti-phosphorylated MEK antibody, concentration-dependent): significantly decreased
